Experimental data taken from the supplement of paper PMC10849652.
The other results are listed elsewhere or left out.

Amino acid sequences for entries named in this document (tags omitted). A change or cut given only in a name is not applied to a line headed by its entry.
UniProt Q9BY42: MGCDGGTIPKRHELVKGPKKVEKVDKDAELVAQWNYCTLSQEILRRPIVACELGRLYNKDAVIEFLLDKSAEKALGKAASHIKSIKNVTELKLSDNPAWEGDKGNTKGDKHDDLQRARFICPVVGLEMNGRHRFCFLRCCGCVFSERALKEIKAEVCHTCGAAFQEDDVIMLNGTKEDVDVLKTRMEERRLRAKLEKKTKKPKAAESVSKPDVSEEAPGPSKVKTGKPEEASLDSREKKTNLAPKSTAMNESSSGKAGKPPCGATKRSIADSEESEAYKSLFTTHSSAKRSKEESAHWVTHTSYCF
UniProt Q9Y3Z3: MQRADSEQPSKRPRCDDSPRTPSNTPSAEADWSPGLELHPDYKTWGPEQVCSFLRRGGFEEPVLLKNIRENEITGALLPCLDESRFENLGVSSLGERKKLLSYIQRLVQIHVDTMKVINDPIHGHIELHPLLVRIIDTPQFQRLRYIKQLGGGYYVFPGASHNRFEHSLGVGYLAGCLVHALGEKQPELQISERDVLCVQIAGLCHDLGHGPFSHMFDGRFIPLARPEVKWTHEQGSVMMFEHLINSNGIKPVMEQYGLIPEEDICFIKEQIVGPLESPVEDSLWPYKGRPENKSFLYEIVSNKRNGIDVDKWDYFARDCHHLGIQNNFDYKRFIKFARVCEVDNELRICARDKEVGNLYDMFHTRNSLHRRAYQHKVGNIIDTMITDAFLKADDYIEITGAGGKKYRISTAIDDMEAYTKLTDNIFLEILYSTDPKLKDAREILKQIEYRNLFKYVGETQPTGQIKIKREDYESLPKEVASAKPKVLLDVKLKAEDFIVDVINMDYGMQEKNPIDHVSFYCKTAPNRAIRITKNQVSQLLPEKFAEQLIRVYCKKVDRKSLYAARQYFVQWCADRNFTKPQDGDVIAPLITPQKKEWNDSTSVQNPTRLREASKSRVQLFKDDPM
UniProt Q8N488: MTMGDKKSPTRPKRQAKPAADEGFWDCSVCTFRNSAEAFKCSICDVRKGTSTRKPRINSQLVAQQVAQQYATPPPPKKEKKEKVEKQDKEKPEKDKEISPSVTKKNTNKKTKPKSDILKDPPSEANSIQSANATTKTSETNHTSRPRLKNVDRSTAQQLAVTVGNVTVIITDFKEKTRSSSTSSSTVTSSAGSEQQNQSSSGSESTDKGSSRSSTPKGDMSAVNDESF
UniProt O94855: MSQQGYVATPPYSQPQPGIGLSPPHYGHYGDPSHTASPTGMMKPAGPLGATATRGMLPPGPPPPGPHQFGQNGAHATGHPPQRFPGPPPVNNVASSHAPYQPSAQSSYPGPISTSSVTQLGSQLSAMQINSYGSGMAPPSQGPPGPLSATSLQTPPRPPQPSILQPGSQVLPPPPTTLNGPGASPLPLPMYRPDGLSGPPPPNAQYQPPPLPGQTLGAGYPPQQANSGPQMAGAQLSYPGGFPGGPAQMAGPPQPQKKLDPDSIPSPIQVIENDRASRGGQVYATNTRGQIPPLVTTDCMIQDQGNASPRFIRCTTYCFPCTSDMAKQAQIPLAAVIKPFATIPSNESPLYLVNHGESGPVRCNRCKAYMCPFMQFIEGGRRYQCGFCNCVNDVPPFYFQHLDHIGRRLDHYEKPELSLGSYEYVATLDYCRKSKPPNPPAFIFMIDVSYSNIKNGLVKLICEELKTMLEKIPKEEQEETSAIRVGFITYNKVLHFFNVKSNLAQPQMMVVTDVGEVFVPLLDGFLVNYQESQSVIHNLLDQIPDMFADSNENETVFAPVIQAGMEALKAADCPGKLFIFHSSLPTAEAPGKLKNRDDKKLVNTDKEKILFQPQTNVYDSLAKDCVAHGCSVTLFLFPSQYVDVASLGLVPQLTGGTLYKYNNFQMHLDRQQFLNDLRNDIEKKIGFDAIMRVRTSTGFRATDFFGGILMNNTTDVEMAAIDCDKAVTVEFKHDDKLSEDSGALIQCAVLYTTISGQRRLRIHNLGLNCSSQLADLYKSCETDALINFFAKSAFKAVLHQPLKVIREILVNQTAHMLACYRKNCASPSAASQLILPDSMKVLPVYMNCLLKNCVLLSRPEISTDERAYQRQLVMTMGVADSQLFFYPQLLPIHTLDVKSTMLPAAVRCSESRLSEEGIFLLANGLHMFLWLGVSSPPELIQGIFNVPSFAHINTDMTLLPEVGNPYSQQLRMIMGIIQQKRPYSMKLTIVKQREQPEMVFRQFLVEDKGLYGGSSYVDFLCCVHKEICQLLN
UniProt Q9UHR5: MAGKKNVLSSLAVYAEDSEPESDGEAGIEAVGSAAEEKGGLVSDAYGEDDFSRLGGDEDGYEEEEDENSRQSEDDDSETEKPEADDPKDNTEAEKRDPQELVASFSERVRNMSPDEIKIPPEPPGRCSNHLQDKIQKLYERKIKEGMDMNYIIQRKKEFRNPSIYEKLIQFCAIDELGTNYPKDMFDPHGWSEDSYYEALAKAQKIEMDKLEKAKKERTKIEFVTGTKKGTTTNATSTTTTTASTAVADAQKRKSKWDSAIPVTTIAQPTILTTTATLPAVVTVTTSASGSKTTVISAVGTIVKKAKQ
UniProt Q8WVM8, whole entry, looked up: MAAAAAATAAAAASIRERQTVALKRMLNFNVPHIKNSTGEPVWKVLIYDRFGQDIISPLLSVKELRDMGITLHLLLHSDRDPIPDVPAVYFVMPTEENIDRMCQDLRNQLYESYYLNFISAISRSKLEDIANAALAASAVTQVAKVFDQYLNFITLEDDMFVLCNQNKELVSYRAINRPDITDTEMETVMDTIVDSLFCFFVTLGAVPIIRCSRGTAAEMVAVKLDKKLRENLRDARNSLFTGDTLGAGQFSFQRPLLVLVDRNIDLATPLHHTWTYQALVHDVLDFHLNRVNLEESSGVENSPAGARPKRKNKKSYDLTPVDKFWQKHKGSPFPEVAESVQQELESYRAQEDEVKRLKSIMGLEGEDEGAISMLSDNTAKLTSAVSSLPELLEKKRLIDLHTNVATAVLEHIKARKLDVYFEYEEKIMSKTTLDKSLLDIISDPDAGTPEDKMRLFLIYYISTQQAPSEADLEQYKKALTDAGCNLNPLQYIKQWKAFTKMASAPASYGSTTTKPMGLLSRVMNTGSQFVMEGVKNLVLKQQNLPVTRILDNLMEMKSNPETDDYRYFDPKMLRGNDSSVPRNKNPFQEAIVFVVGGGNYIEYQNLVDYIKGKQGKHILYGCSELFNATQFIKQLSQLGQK
UniProt Q96T51: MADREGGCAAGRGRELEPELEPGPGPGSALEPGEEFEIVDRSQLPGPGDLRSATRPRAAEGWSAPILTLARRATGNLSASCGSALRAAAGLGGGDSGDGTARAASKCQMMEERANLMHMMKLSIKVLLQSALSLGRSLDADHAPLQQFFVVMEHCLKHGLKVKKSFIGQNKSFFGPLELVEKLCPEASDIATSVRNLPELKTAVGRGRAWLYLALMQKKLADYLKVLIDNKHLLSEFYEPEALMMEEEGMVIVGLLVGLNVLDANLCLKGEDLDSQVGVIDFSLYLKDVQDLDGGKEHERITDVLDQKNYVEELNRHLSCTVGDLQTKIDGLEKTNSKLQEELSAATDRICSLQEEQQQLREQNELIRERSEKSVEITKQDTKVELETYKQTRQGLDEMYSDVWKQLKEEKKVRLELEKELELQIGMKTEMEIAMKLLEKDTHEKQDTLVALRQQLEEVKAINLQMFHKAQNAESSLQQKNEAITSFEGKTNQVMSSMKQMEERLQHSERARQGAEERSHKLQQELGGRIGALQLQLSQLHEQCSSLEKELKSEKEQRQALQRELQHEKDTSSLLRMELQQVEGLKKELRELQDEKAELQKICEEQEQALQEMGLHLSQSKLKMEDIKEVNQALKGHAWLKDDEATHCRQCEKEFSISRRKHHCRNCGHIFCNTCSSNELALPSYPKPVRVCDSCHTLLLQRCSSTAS
UniProt Q96I15: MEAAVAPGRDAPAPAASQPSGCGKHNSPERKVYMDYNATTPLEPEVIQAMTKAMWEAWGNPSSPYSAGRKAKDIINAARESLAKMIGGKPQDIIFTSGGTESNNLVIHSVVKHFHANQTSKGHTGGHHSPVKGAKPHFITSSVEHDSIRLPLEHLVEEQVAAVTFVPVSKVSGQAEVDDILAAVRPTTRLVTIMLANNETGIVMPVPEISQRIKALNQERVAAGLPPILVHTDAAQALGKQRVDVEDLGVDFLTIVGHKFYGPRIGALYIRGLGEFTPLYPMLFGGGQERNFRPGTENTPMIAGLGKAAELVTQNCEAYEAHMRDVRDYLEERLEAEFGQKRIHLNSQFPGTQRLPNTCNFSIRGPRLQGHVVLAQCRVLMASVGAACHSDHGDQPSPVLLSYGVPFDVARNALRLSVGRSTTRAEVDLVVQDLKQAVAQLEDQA
UniProt Q5VWQ0: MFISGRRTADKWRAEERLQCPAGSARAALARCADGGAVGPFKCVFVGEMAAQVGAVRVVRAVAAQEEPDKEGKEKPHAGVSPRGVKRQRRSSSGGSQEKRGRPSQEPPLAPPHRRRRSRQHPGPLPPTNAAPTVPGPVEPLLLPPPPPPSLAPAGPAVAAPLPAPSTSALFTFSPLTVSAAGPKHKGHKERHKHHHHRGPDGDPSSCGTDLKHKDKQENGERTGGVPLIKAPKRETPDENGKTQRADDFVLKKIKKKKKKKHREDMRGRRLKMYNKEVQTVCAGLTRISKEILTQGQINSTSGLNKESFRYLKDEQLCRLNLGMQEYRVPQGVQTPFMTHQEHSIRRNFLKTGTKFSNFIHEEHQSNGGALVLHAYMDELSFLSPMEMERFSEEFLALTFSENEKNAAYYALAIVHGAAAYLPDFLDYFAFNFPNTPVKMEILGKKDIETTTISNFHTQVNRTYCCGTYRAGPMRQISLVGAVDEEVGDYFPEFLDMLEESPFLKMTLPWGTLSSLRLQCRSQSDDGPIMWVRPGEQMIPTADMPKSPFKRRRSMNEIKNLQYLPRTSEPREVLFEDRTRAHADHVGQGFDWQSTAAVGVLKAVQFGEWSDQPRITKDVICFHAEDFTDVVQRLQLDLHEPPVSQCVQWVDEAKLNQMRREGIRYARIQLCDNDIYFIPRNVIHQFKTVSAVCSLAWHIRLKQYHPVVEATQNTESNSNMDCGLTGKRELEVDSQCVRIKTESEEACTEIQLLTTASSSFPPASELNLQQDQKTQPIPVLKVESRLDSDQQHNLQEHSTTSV
UniProt O14521: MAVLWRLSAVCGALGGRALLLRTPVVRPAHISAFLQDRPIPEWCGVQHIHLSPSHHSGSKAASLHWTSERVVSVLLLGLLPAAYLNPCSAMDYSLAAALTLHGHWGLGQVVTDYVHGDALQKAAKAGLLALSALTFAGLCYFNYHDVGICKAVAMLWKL
UniProt Q15436: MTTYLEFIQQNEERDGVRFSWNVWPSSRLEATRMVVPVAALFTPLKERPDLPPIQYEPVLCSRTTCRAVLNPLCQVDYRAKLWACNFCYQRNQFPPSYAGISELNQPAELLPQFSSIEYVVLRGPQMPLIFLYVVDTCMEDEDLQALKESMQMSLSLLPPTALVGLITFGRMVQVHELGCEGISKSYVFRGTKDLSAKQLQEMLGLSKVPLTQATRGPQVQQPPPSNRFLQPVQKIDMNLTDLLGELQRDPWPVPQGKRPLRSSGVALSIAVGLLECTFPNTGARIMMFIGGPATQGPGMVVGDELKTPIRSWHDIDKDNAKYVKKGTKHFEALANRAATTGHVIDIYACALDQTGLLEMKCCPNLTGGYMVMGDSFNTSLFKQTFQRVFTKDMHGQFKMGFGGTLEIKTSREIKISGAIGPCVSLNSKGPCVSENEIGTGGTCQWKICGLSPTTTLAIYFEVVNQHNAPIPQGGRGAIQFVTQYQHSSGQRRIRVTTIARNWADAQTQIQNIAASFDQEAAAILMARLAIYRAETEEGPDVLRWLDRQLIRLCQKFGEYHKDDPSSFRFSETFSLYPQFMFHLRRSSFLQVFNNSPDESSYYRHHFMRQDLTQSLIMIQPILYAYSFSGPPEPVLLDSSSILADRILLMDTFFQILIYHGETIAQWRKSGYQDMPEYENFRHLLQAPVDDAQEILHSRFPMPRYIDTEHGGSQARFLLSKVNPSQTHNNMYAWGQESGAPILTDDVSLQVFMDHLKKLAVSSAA
UniProt Q9Y265, whole entry, looked up: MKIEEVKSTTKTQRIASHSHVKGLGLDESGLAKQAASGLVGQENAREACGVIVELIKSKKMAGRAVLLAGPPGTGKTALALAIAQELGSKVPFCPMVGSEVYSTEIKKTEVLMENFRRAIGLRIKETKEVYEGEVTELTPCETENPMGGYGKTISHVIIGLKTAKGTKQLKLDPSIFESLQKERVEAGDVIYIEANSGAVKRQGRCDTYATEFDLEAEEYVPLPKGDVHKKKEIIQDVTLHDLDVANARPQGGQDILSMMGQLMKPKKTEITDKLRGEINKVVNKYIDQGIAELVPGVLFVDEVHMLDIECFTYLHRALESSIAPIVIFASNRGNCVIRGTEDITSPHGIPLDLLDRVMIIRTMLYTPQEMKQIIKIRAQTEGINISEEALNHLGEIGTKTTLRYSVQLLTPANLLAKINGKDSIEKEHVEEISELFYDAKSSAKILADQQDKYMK

Legend:
Experiment in all cases: log2 fold change, soluble protein after heating vs DMSO (PISA); higher = thermal stabilisation; K562 cells, 10 uM, 30 min; active = over 0.2 and 3.5 SD of the protein, either way, in both replicates (recomputed)
bafetinib = compound: Cc1ccc(NC(=O)c2ccc(CN3CC[C@H](N(C)C)C3)c(C(F)(F)F)c2)cc1Nc1nccc(-c2cncnc2)n1 [bafetinib]
In short: (§1)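 K562 cells at 2×10^6 cells/mL were given 10 μM compound for 30 min. Aliquots then went through 3 min of heating across 48°C-58°C, were pooled, and were extracted in PBS with 0.5% NP-40 at 4°C, and the supernatant after 21,000xg for 90 min was quantified by TMTpro 16plex LC-MS/MS with channel sums equalised. Thermal stability relative to control samples, from duplicates, is given as log2 fold change.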

[1] = compound: Cc1cccc(CC(=O)N2CCc3c2ccc(-c2cn(C)c4ncnc(N)c24)c3F)n1
In short: as §1

nilotinib = compound: Cc1cn(-c2cc(NC(=O)c3ccc(C)c(Nc4nccc(-c5cccnc5)n4)c3)cc(C(F)(F)F)c2)cn1 [nilotinib]
In short: as §1

[2] = compound: Cc1nc(Nc2n[nH]c3c2CN(C(=O)N[C@H](CN(C)C)c2ccccc2)C3(C)C)c2sccc2n1
In short: as §1

dasatinib = compound: Cc1nc(Nc2ncc(C(=O)Nc3c(C)cccc3Cl)s2)cc(N2CCN(CCO)CC2)n1 [dasatinib]
In short: as §1

[3] = compound: Cc1ncc(-c2ccnc(Nc3ccc(S(C)(=O)=O)cc3)n2)n1C(C)C
In short: as §1

[4] = compound: Cn1cc(-c2ccc3c(c2)CCN3C(=O)Cc2cccc(C(F)(F)F)c2)c2c(N)ncnc21
In short: as §1

[5] = compound: Cn1cc(-c2ccc3nnc(C(F)(F)c4ccc5ncccc5c4)n3n2)cn1
In short: as §1

tipifarnib = compound: Cn1cncc1[C@@](N)(c1ccc(Cl)cc1)c1ccc2c(c1)c(-c1cccc(Cl)c1)cc(=O)n2C [tipifarnib]
In short: as §1

mubritinib = compound: FC(F)(F)c1ccc(/C=C/c2nc(COc3ccc(CCCCn4ccnn4)cc3)co2)cc1 [mubritinib]
In short: as §1

Measured: log2 fold change

RTF2 (UniProt Q9BY42)
inactive: bafetinib -0.074 | [1] -0.001 | nilotinib -0.045 | [2] -0.125 | dasatinib -0.012 | [3] 0.039 | [4] -0.071 | [5] -0.039 | tipifarnib -0.065 | mubritinib -0.047

SDF4 (UniProt Q9BRK5)
inactive: bafetinib -0.052 | [1] 0.006 | nilotinib -0.031 | [2] -0.001 | dasatinib 0.08 | [3] 0.045 | [4] -0.019 | [5] 0.02 | tipifarnib -0.015 | mubritinib -0.031

RSPRY1 (UniProt Q96DX4)
inactive: bafetinib 0.052 | [1] -0.05 | nilotinib 0.012 | [2] -0.037 | dasatinib -0.036 | [3] 0.01 | [4] 0.007 | [5] -0.049 | tipifarnib 0.093 | mubritinib -0.039

SAMD4B (UniProt Q5PRF9)
inactive: bafetinib -0.436 | [1] 0.125 | nilotinib -0.167 | [2] -0.312 | dasatinib -0.296 | [3] 0.002 | [4] -0.072 | [5] -0.042 | tipifarnib 0.09

RRS1 (UniProt Q15050)
inactive: bafetinib 0.121 | [1] -0.125 | nilotinib -0.024 | [2] 0.073 | dasatinib 0.161 | [3] 0.267 | [4] -0.431 | [5] -0.165 | tipifarnib 0.105 | mubritinib -0.226

S100A6 (UniProt P06703)
inactive: bafetinib -0.17 | [1] -0.094 | nilotinib 0.011 | [2] 0.005 | dasatinib 0.055 | [3] -0.023 | [4] 0.039 | [5] 0.09 | tipifarnib -0.131 | mubritinib -0.026

SAMHD1 (UniProt Q9Y3Z3)
inactive: bafetinib -0.134 | [1] 0.014 | nilotinib -0.08 | [2] -0.097 | dasatinib -0.125 | [3] 0.019 | [4] 0.024 | [5] 0.025 | tipifarnib 0.051 | mubritinib -0.04

SDE2 (UniProt Q6IQ49)
inactive: bafetinib -0.096 | [1] -0.011 | nilotinib -0.071 | [2] 0.018 | dasatinib 0.038 | [3] 0.059 | [4] -0.067 | [5] 0.028 | tipifarnib 0.012 | mubritinib 0.025

RYBP (UniProt Q8N488)
inactive: bafetinib -0.104 | [1] -0.06 | nilotinib 0.107 | [2] -0.095 | dasatinib 0.119 | [3] -0.039 | [4] -0.039 | [5] 0.064 | tipifarnib 0.139 | mubritinib 0.094

SACS (UniProt Q9NZJ4)
inactive: bafetinib 0.034 | [1] -0.059 | nilotinib -0.093 | [2] 0.109 | dasatinib -0.012 | [3] -0.05 | [4] -0.069 | [5] 0.072 | tipifarnib 0.133 | mubritinib 0.093

SEC24D isoform 2 (UniProt O94855)
inactive: bafetinib -0.001 | [1] 0.058 | nilotinib -0.019 | [2] -0.001 | dasatinib -0.062 | [3] -0.036 | [4] 0.054 | [5] -0.041 | tipifarnib -0.011 | mubritinib 0.086

Two successive entries from above, for reference:
SAMD4B (UniProt Q5PRF9)
inactive: bafetinib -0.436 | [1] 0.125 | nilotinib -0.167 | [2] -0.312 | dasatinib -0.296 | [3] 0.002 | [4] -0.072 | [5] -0.042 | tipifarnib 0.09

RRS1 (UniProt Q15050)
inactive: bafetinib 0.121 | [1] -0.125 | nilotinib -0.024 | [2] 0.073 | dasatinib 0.161 | [3] 0.267 | [4] -0.431 | [5] -0.165 | tipifarnib 0.105 | mubritinib -0.226

Remaining list, next part.

SCRN2 (UniProt Q96FV2)
inactive: bafetinib -0.002 | [1] 0.012 | nilotinib 0.045 | [2] -0.007 | dasatinib -0.06 | [3] -0.066 | [4] -0.019 | [5] -0.157 | tipifarnib 0.069 | mubritinib 0.118

SAP30BP (UniProt Q9UHR5)
inactive: bafetinib -0.087 | [1] -0.014 | nilotinib 0.005 | [2] -0.029 | dasatinib 0 | [3] 0.02 | [4] -0.006 | [5] -0.057 | tipifarnib 0 | mubritinib 0.023

SCFD1 (UniProt Q8WVM8)
inactive: bafetinib -0.018 | [1] 0.029 | nilotinib -0.03 | [2] -0.037 | dasatinib -0.136 | [3] 0.002 | [4] 0.018 | [5] 0.015 | tipifarnib -0.022 | mubritinib 0.084

SDHB, A0A087WXX8
inactive: bafetinib 0.016 | [1] -0.13 | nilotinib -0.107 | [2] 0.071 | dasatinib -0.035 | [3] -0.057 | [4] -0.104 | [5] 0.097 | tipifarnib 0.054 | mubritinib -0.045

RUFY1 (UniProt Q96T51)
inactive: bafetinib -0.052 | [1] 0.077 | nilotinib -0.066 | [2] -0.086 | dasatinib -0.11 | [3] 0.067 | [4] -0.061 | [5] 0.05 | tipifarnib -0.062 | mubritinib -0.001

SCLY (UniProt Q96I15)
inactive: bafetinib -0.006 | [1] 0.014 | nilotinib 0.052 | [2] 0.015 | dasatinib 0.035 | [3] -0.02 | [4] 0.043 | [5] -0.048 | tipifarnib -0.023 | mubritinib -0.008

SAAL1 (UniProt Q96ER3)
inactive: bafetinib -0.102 | [1] 0.047 | nilotinib -0.042 | [2] 0.161 | dasatinib -0.101 | [3] 0.246 | [4] -0.06 | [5] 0 | tipifarnib -0.053 | mubritinib 0.109

SEC24C (UniProt P53992)
inactive: bafetinib 0.078 | [1] 0.025 | nilotinib -0.035 | [2] -0.038 | dasatinib -0.067 | [3] 0.022 | [4] 0.012 | [5] -0.038 | tipifarnib -0.098 | mubritinib 0.013

SDHA (UniProt P31040)
inactive: bafetinib -0.029 | [1] 0.017 | nilotinib 0.005 | [2] 0.003 | dasatinib 0.038 | [3] -0.041 | [4] -0.001 | [5] 0.008 | tipifarnib 0.017 | mubritinib 0.015

RSBN1 (UniProt Q5VWQ0)
inactive: bafetinib 0.092 | [1] 0.234 | nilotinib 0.061 | [2] 0.216 | dasatinib 0.071 | [3] -0.297 | [4] -0.273 | [5] -0.125 | tipifarnib 0.241 | mubritinib -0.253

SDHD (UniProt O14521)
inactive: bafetinib -0.037 | [1] -0.12 | nilotinib -0.005 | [2] 0.035 | dasatinib -0.013 | [3] -0.041 | [4] -0.128 | [5] 0.073 | tipifarnib 0.002 | mubritinib 0.083

SEC23A (UniProt Q15436)
inactive: bafetinib -0.011 | [1] 0.024 | nilotinib -0.012 | [2] 0.014 | dasatinib -0.07 | [3] -0.009 | [4] -0.018 | [5] -0.052 | tipifarnib -0.013 | mubritinib -0.002

RUVBL2 (UniProt Q9Y230)
inactive: bafetinib 0.044 | [1] 0.047 | nilotinib 0.107 | [2] 0.07 | dasatinib 0.025 | [3] -0.012 | [4] -0.012 | [5] -0.018 | tipifarnib -0.02 | mubritinib 0.014

RUVBL1 (UniProt Q9Y265)
inactive: bafetinib 0.074 | [1] -0.063 | nilotinib 0.112 | [2] 0.104 | dasatinib 0.039 | [3] 0.006 | [4] -0.003 | [5] -0.009 | tipifarnib 0.017 | mubritinib -0.004

SEC23IP (UniProt Q9Y6Y8)
inactive: bafetinib -0.23 | [1] 0.036 | nilotinib -0.017 | [2] -0.061 | dasatinib -0.143 | [3] -0.026 | [4] 0.148 | [5] 0.009 | tipifarnib -0.057 | mubritinib 0.014

SCARB2 (UniProt Q14108)
inactive: bafetinib -0.153 | [1] -0.064 | nilotinib 0.047 | [2] 0.018 | dasatinib 0.067 | [3] -0.006 | [4] 0.03 | [5] -0.009 | tipifarnib 0.023 | mubritinib -0.011

RRP12 (UniProt Q5JTH9)
inactive: bafetinib 0.01 | [1] -0.036 | nilotinib -0.082 | [2] 0.088 | dasatinib -0.028 | [3] 0.184 | [4] -0.136 | [5] -0.123 | tipifarnib -0.035 | mubritinib -0.096

SCAMP1 (UniProt O15126)
inactive: bafetinib -0.085 | [1] -0.041 | nilotinib -0.02 | [2] 0.003 | dasatinib 0.027 | [3] 0.031 | [4] 0.025 | [5] 0.034 | tipifarnib 0.065 | mubritinib 0.007

RRP36 (UniProt Q96EU6)
inactive: bafetinib 0.428 | [1] 0.054 | nilotinib -0.007 | [2] 0.203 | dasatinib 0.164 | [3] -0.011 | [4] -0.319 | [5] -0.016 | tipifarnib 0.208 | mubritinib -0.132
